# Assay results taken from the supplement of paper PMC8728848.
# This is one part of the list.
# B1: GST-Gap1 (Streptococcus parasanguinis), A1C3L5 (protein)
# chain: MFYFVPSWYNGQRQWYYDTPWWFRVKNRMTFDDSVNQVKMFLQGQEEIGLMILNYQPQLRYFLHKQNIFGIYYWSFFDDIQNITRSYTKIIHLKDLNWPEGCEFLYSPFAVVVRLKGEIFAIVNYAEDGNLHSVSFQKNGKVTKDYIFDDRGFLSSILYYDIDERPLYQDYLNINGVWQVREFLKKENDPTPILMINDFSDQTFSKKYYNGWEELIKERLAIFQNNHVENEDVFVLASDTQHNQLVSSIFKEHRKIYSFFGNRFNLENLGQDRISINDATFLVVDTEKNEELLRKTCENLVFKSIPIVRLSPFDSRLRLGHSQTVKEQIIYFHIDNIELDELYSVIAIILELMTLHLDIELRIVTFRQDFQLDLLKTWIIDFIKTNHFEDLLFKQISEGENEIEDEGEIELSRIAMECFTNENQIIKCLDTARLVIDLGIEPDLYTQIASISAGIPQINRVSSDYVIHQKNGLVISDISKLSSAIEFYFDGLFNWNEALIYAVRKMSDYTSGKILKQWKGMLKKK
# What was measured:
# Experiment in all cases: glycan array binding signal (z-score within array); higher = stronger binding
# Conditions in all cases: glycan notation: IUPAC condensed, linker removed
# [1] = molecular target: Gal(b1-4)GlcNAc(b1-6)[Gal(b1-3)]GalNAc
# How it was run: (§1)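 Columns mapping to the same glycan were averaged after glycan names were converted to IUPAC-condensed notation. The data come from 3228 arrays in the Consortium for Functional Glycomics database, limited to those with an available protein sequence. Binding is reported as a within-array Z-score averaged across arrays of one protein sequence and across linkers.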
# [2] = molecular target: Gal(b1-4)GlcNAc(b1-6)[Gal(b1-4)GlcNAc(b1-3)]GalNAc
# How it was run: as §1
# Gal(b1-4)GlcNAc6P = molecular target: Gal(b1-4)GlcNAc6P
# How it was run: as §1
# Gal(b1-6)Gal = molecular target: Gal(b1-6)Gal
# How it was run: as §1
# Gal3S(b1-3)GalNAc = molecular target: Gal3S(b1-3)GalNAc
# How it was run: as §1
# Gal3S(b1-3)GlcNAc = molecular target: Gal3S(b1-3)GlcNAc
# How it was run: as §1
# [3] = molecular target: Gal3S(b1-3)[Fuc(a1-4)]GlcNAc
# How it was run: as §1
# Gal3S(b1-4)Glc = molecular target: Gal3S(b1-4)Glc
# How it was run: as §1
# Gal3S(b1-4)Glc6S = molecular target: Gal3S(b1-4)Glc6S
# How it was run: as §1
# Gal3S(b1-4)GlcNAc = molecular target: Gal3S(b1-4)GlcNAc
# How it was run: as §1
# Gal3S(b1-4)GlcNAc6S = molecular target: Gal3S(b1-4)GlcNAc6S
# How it was run: as §1
# [4] = molecular target: Gal3S(b1-4)[Fuc(a1-3)]Glc
# How it was run: as §1
# [5] = molecular target: Gal3S(b1-4)[Fuc(a1-3)]Glc6S
# How it was run: as §1
# [6] = molecular target: Gal3S(b1-4)[Fuc(a1-3)]GlcNAc
# How it was run: as §1
# [7] = molecular target: Gal3S(b1-4)[Fuc(a1-3)]GlcNAc6S
# How it was run: as §1
# Gal3S4S(b1-4)GlcNAc = molecular target: Gal3S4S(b1-4)GlcNAc
# How it was run: as §1
# Gal3S6S(b1-4)GlcNAc = molecular target: Gal3S6S(b1-4)GlcNAc
# How it was run: as §1
# Gal3S6S(b1-4)GlcNAc6S = molecular target: Gal3S6S(b1-4)GlcNAc6S
# How it was run: as §1
# Gal4S(b1-4)GlcNAc = molecular target: Gal4S(b1-4)GlcNAc
# How it was run: as §1
# Gal4S6S(b1-4)GlcNAc = molecular target: Gal4S6S(b1-4)GlcNAc
# How it was run: as §1
# Gal6P(b1-4)GlcNAc = molecular target: Gal6P(b1-4)GlcNAc
# How it was run: as §1
# Gal6S(b1-3)GlcNAc = molecular target: Gal6S(b1-3)GlcNAc
# How it was run: as §1
# Gal6S(b1-3)GlcNAc6S = molecular target: Gal6S(b1-3)GlcNAc6S
# How it was run: as §1
# Gal6S(b1-4)Glc = molecular target: Gal6S(b1-4)Glc
# How it was run: as §1
# Gal6S(b1-4)Glc6S = molecular target: Gal6S(b1-4)Glc6S
# How it was run: as §1
# Gal6S(b1-4)GlcNAc = molecular target: Gal6S(b1-4)GlcNAc
# How it was run: as §1
# Gal6S(b1-4)GlcNAc6S = molecular target: Gal6S(b1-4)GlcNAc6S
# How it was run: as §1
# GalNAc(a1-3)Gal = molecular target: GalNAc(a1-3)Gal
# How it was run: as §1
# GalNAc(a1-3)GalNAc = molecular target: GalNAc(a1-3)GalNAc
# How it was run: as §1
# [8] = molecular target: GalNAc(a1-3)GalNAc(a1-3)Gal(a1-4)Gal(b1-4)GlcNAc
# How it was run: as §1
# [9] = molecular target: GalNAc(a1-3)GalNAc(b1-3)Gal(a1-4)Gal(b1-4)Glc
# How it was run: as §1
# [10] = molecular target: GalNAc(a1-3)GalNAc(b1-3)Gal(a1-4)Gal(b1-4)GlcNAc
# How it was run: as §1
# GalNAc(b1-3)Gal = molecular target: GalNAc(b1-3)Gal
# How it was run: as §1
# [11] = molecular target: GalNAc(b1-3)Gal(a1-4)Gal(b1-4)GlcNAc
# How it was run: as §1
# [12] = molecular target: GalNAc(b1-3)Gal(a1-4)Gal(b1-4)GlcNAc(b1-3)Gal(b1-4)Glc
# How it was run: as §1
# [13] = molecular target: GalNAc(b1-3)Gal(a1-6)Gal(b1-4)Glc
# How it was run: as §1
# GalNAc(b1-3)GalNAc = molecular target: GalNAc(b1-3)GalNAc
# How it was run: as §1
# GalNAc(b1-3)GlcNAc = molecular target: GalNAc(b1-3)GlcNAc
# How it was run: as §1
binder,measurement,setting,value
B1,glycan array binding signal (z-score),[1],0.095
same,glycan array binding signal (z-score),[2],1
same,glycan array binding signal (z-score),Gal(b1-4)GlcNAc6P,-1.02
same,glycan array binding signal (z-score),Gal(b1-6)Gal,0.538
same,glycan array binding signal (z-score),Gal3S(b1-3)GalNAc,-0.28
same,glycan array binding signal (z-score),Gal3S(b1-3)GlcNAc,0.83
same,glycan array binding signal (z-score),[3],-0.109
same,glycan array binding signal (z-score),Gal3S(b1-4)Glc,0.496
same,glycan array binding signal (z-score),Gal3S(b1-4)Glc6S,0.096
same,glycan array binding signal (z-score),Gal3S(b1-4)GlcNAc,0.12
same,glycan array binding signal (z-score),Gal3S(b1-4)GlcNAc6S,0.348
same,glycan array binding signal (z-score),[4],-0.553
same,glycan array binding signal (z-score),[5],0.597
same,glycan array binding signal (z-score),[6],0.895
same,glycan array binding signal (z-score),[7],-0.572
same,glycan array binding signal (z-score),Gal3S4S(b1-4)GlcNAc,-0.342
same,glycan array binding signal (z-score),Gal3S6S(b1-4)GlcNAc,-0.171
same,glycan array binding signal (z-score),Gal3S6S(b1-4)GlcNAc6S,-0.183
same,glycan array binding signal (z-score),Gal4S(b1-4)GlcNAc,-0.467
same,glycan array binding signal (z-score),Gal4S6S(b1-4)GlcNAc,-0.08
same,glycan array binding signal (z-score),Gal6P(b1-4)GlcNAc,0.207
same,glycan array binding signal (z-score),Gal6S(b1-3)GlcNAc,-0.285
same,glycan array binding signal (z-score),Gal6S(b1-3)GlcNAc6S,0.817
same,glycan array binding signal (z-score),Gal6S(b1-4)Glc,0.047
same,glycan array binding signal (z-score),Gal6S(b1-4)Glc6S,0.653
same,glycan array binding signal (z-score),Gal6S(b1-4)GlcNAc,-0.065
same,glycan array binding signal (z-score),Gal6S(b1-4)GlcNAc6S,-0.247
same,glycan array binding signal (z-score),GalNAc(a1-3)Gal,-0.282
same,glycan array binding signal (z-score),GalNAc(a1-3)GalNAc,-0.202
same,glycan array binding signal (z-score),[8],-0.419
same,glycan array binding signal (z-score),[9],-0.206
same,glycan array binding signal (z-score),[10],0.773
same,glycan array binding signal (z-score),GalNAc(b1-3)Gal,0.1
same,glycan array binding signal (z-score),[11],0.159
same,glycan array binding signal (z-score),[12],-0.326
same,glycan array binding signal (z-score),[13],-0.325
same,glycan array binding signal (z-score),GalNAc(b1-3)GalNAc,0.329
same,glycan array binding signal (z-score),GalNAc(b1-3)GlcNAc,-0.376

# Another view of part of the listing above:
binder	measurement	setting	value
B1	glycan array binding signal (z-score)	Gal4S6S(b1-4)GlcNAc	-0.08
same	glycan array binding signal (z-score)	GalNAc(b1-3)Gal	0.1
same	glycan array binding signal (z-score)	[11]	0.159
